{"source": "PubChem BioAssay AID540303", "about": "(National Center for Advancing Translational Sciences (NCATS), 2011)", "note": "The whole screen tested about 330,000 compounds, of which about 1,000 (0.3%) were called active. Inconclusive means that the source gave no clear call. Such entries were picked first, then a sample of the others. Calls follow the shape of the dose curve; as a rule, active = well fitted inhibition curve with a large enough effect; inconclusive = small, poorly fitted or top-dose-only effect; inactive = no such curve, though single readings can be large or run the other way; tested in mouse RAW 264.7 cells. Potencies of inconclusive entries are doubtful fits and often do not repeat. Potency is read from the fitted curve at half-maximal effect.", "data": [{"assay": "qHTS for Inhibitors of Cell Surface uPA Generation; also: nearly all actives have a fitted effect of over 55% in size", "conditions": "cell surface uPA generation assay; series mostly up to 38.3 µM", "method_in_brief": "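Validation set in qHTS format. RAW 264.7 cells were pre-plated overnight and then exposed to compounds (up to 38.3 uM final) for 24 h at 37 C in 5% CO2, followed by a luminescent ATP-Lite measurement.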", "values": [{"compound": "CCOc1ccc(NC(=O)CCN2C(=O)CSc3ccccc32)cc1", "Potency": "inconclusive: 3.55 µM [inhibitor, partial curve, poor fit]"}, {"compound": "CCN(CC)c1ccc(NC(=O)c2ccc(=O)[nH]c2)cc1S(=O)(=O)Nc1ccccc1OC", "Potency": "inactive"}, {"compound": "COCCn1c(C)cc(C(=O)Cn2nc(C(=O)O)c3ccccc3c2=O)c1C", "Potency": "inconclusive: 11.2 µM [inhibitor, partial curve, poor fit]"}, {"compound": "CCOc1ccc(N2C(=O)c3ccccc3NC2(C)CC)cc1", "note": "(stereo unspecified)", "Potency": "inconclusive: 10 µM [inhibitor, single point]"}, {"compound": "CC1(C)CC2CC(C)(CN2C(=O)c2cc(-c3ccc(O)cc3)on2)C1", "note": "(stereo unspecified)", "Potency": "inactive"}, {"compound": "O=C(COc1ccc(S(=O)(=O)N2CCOCC2)cc1)Nc1ccc(Cl)c(C(F)(F)F)c1", "Potency": "inconclusive: 12.6 µM [inhibitor, single point]"}, {"compound": "COc1ccc(-n2c(C)cc(C(=O)Cn3nnc4ccccc4c3=O)c2C)cc1", "Potency": "inconclusive: 2.82 µM [inhibitor, partial curve, poor fit]"}, {"compound": "CC(C)c1cc(N2CCN(C(=O)c3ccco3)CC2)n2c(nc3ccccc32)c1C#N", "Potency": "inactive"}, {"compound": "Clc1cccc(OCc2nc(-c3ccncc3)no2)c1", "Potency": "inactive"}, {"compound": "C#CCOCCOCCOCCNc1nc(N2CCOCC2)nc(N2CCN(C(=O)[C@H](Cc3cc4ccccc4[nH]3)n3cc([C@@H](N)CC(C)C)nn3)CC2)n1", "Potency": "inactive"}, {"compound": "COc1ccc(Cl)cc1NC(=O)CN(C)C(=O)C12CC3CC(CC(Cl)(C3)C1)C2", "Potency": "inactive"}, {"compound": "CCCCn1nc2cc(C(=O)NCC34CC5CC(CC(C5)C3)C4)ccc2c1OCC", "Potency": "inconclusive: 3.55 µM [inhibitor, partial curve]"}, {"compound": "CN(C)c1ccc(N=C/C=C2/N(C)c3ccccc3C2(C)C)cc1", "Potency": "inconclusive: 12.6 µM [inhibitor, partial curve, poor fit]"}, {"compound": "COc1ccc(Cl)cc1NC(=O)Nc1ccccc1C(N)=O", "Potency": "active: 3.16 µM"}, {"compound": "CC(C)(C)NS(=O)(=O)c1ccc(C(=O)Nc2ccc3c(c2)OCO3)cc1", "Potency": "inactive"}, {"compound": "Oc1ccc(/C=N/Nc2nn3cnnc3c3ccccc23)cc1", "Potency": "inconclusive: 5.62 µM [inhibitor, partial curve, poor fit]"}, {"compound": "COc1cc(CC(=O)OCC(=O)NC2CCCC2)cc(OC)c1OC", "Potency": "inactive"}, {"compound": "O=C(Nc1ccc(Oc2ccccc2)nc1)C1CCCCN1Cc1ccco1", "note": "(stereo unspecified)", "Potency": "inconclusive: 6.31 µM [inhibitor, partial curve, poor fit]"}, {"compound": "Cc1c(C(C)NC(=O)c2cc(COc3cccc4cnccc34)on2)cnn1C", "note": "(stereo unspecified)", "Potency": "inconclusive: 8.91 µM [inhibitor, partial curve, poor fit]"}, {"compound": "CCOc1ccccc1NC(=O)Cn1nnc(C(=O)NCc2ccc3c(c2)OCO3)c1N", "Potency": "inconclusive: 3.16 µM [inhibitor, partial curve, poor fit]"}, {"compound": "COc1ccc(-c2cc3nc(C)n(N)c(=O)c3s2)cc1", "Potency": "active: 0.708 µM"}, {"compound": "COc1ccc(CCn2c(C)cc(C(=O)CCl)c2C)cc1OC", "Potency": "active: 8.91 µM"}, {"compound": "CCCN(CCC)S(=O)(=O)c1cccc(C(=O)Nc2ccc3c(c2)OCO3)c1", "Potency": "inconclusive: 31.6 µM [inhibitor, partial curve, poor fit]"}, {"compound": "O=C(NCc1ccccc1Cl)C1=CC=CN2CCS(=O)(=O)N=C12", "Potency": "inconclusive: 0.316 µM [inhibitor, full curve, poor fit]"}, {"compound": "CC(C)(C)NC(=O)C(c1ccc(-c2ccccc2)cc1)N(C[C@H]1CC[C@@H]([C@@H]2CC[C@H](CO)O2)O1)C(=O)c1cccc(Cl)c1", "note": "(stereo partly specified)", "Potency": "inconclusive: 28.2 µM [inhibitor, single point]"}, {"compound": "CCCCOCCCN1CC(=O)N2C(C)c3[nH]c4ccccc4c3C[C@H]2C1=O", "note": "(stereo partly specified)", "Potency": "inconclusive: 22.4 µM [inhibitor, partial curve, poor fit]"}, {"compound": "O=C1/C(=C/c2ccncc2)Oc2cc(OS(=O)(=O)c3ccccc3)ccc21", "Potency": "inconclusive: 12.6 µM [inhibitor, single point]"}, {"compound": "CCN1CCN(c2ccc(S(=O)(=O)N3CCCCC3)cc2NC(=O)c2ccc(C)c(C)c2)CC1", "Potency": "inconclusive: 15.8 µM [inhibitor, single point]"}, {"compound": "O=C(NCc1ccc(F)cc1)c1ccc(CS(=O)Cc2ccccc2Cl)o1", "note": "(stereo unspecified)", "Potency": "inconclusive: 0.794 µM [inhibitor, full curve, poor fit]"}, {"compound": "CC1(C)CC(N2CCN(c3ccccc3)CC2)=CC(=[N+]2CCCC2)C1", "Potency": "inconclusive: 8.91 µM [inhibitor, partial curve]"}, {"compound": "CCn1c(=S)sc2c(=O)n(CC(=O)Nc3ccc(Cl)cc3)c(C)nc21", "Potency": "inactive"}, {"compound": "Cc1[nH]n(C2=NCCS2)c(=O)c1N=Nc1cccc(C(F)(F)F)c1", "Potency": "inconclusive: 2.51 µM [inhibitor, full curve, poor fit]"}, {"compound": "OCCNc1nc(-c2ccccc2)c2cc(Br)ccc2n1", "Potency": "inconclusive: 8.91 µM [inhibitor, partial curve]"}, {"compound": "Cn1c(=O)c2c(nc(N3CCCC3)n2CC(O)CO)n(C)c1=O", "note": "(stereo unspecified)", "Potency": "inactive"}, {"compound": "CCCCn1c(=NC(=O)c2ccco2)c(C(=O)OCC)cc2c(=O)n3cccc(C)c3nc21", "Potency": "inconclusive: 7.94 µM [inhibitor, partial curve, poor fit]"}, {"compound": "CSCCC(NC(=O)c1ccccc1Cl)C(=O)Nc1ccc(C)c(S(=O)(=O)N2CCOCC2)c1", "note": "(stereo unspecified)", "Potency": "inconclusive: 3.16 µM [inhibitor, partial curve, poor fit]"}, {"compound": "COc1ccc(-c2ccc3c(c2)C2CC3CCN2S(=O)(=O)c2ccccc2C)cc1", "note": "(stereo unspecified)", "Potency": "inconclusive: 11.2 µM [inhibitor, single point]"}, {"compound": "CC(C)COc1ccc(-c2cc(C(=O)NN)[nH]n2)cc1", "Potency": "inconclusive: 10 µM [inhibitor, single point]"}, {"compound": "CN1CCN(C2Cc3ccccc3Sc3ccc(Cl)cc32)CC1", "note": "(stereo unspecified)", "Potency": "inconclusive: 12.6 µM [inhibitor, single point]"}, {"compound": "O=S1(=O)NC(=NCC(c2ccco2)N2CCCCC2)c2ccccc21", "note": "(stereo unspecified)", "Potency": "inconclusive: 12.6 µM [inhibitor, partial curve, poor fit]"}, {"compound": "Cc1cc(Br)cc(/C=N/NC(=O)c2ccc3c(c2)OCO3)c1O", "Potency": "inconclusive: 14.1 µM [inhibitor, single point]"}]}]}
